# Experimental data taken from patent US10407468 (dated 2019).
# Test: general procedure: Fmoc solid-phase peptide synthesis; tricyclic amide linker resin (Ramage Resin)
# [1] = late stage modification step, HPLC (AUC), run 1
# [2] = late stage modification step, HPLC (AUC), run 2
# [3] = late stage modification step, run 1
# [4] = late stage modification step, run 2
# [5] = late stage modification step, HPLC (AUC)
substance,measurement,setting,value
Ac-Pen(Acm)-N(Me)-Arg(pbf)-Ser(^tBu)-Asp(O^tBu)-Thr(^tBu)-Leu-OH,step yield,late stage modification step,78%
Ac-Pen(Acm)-N(Me)-Arg(pbf)-Ser(^tBu)-Asp(O^tBu)-Thr(^tBu)-Leu-Pen(Acm)-Phe(4-^tBu)-β-homoGlu(O^tBu)-(D)-Lys(Boc)-NH2,step yield,coupling step,85%
same,crude HPLC purity,[1],87.2%
same,crude HPLC purity,[2],77.2%
same,step yield,[3],82.3%
same,step yield,[4],92.6%
"Ac-Pen(^ΨMe,MePro)-N-Me-Arg(Pbf)-Ser(^tBu)-Asp(O^tBu)-Thr(^tBu)-Leu-OMe (SEQ ID NO: 3)",step yield,coupling step,66.6%
Ac-[Pen][NMeR]SDTL[Pen][Phe(4-tBu)][β3hE][dK] (cysteine pairing not given here),final HPLC purity,"cyclisation step, AUC",94.09%
same,crude HPLC purity,"cyclisation step, AUC, run 1",59.92%
same,crude HPLC purity,"cyclisation step, AUC, run 2",40.10%
same,step yield,late stage modification step,104%
same,crude HPLC purity,[1],60.3%
same,crude HPLC purity,[2],56.2%
same,final HPLC purity,"oxidative folding step, HPLC (AUC)",around 97% purity
same,oxidative folding yield,"oxidative folding step, total weight of purified peptide obtained/total weight of crude peptide processed",28.3%
same,crude HPLC purity,"whole synthesis, AUC, run 1",67.05%
same,crude HPLC purity,"whole synthesis, AUC, run 2",51.23%
Cbz-N(Me)-Arg(Pbf)-Ser(^tBu)-Asp(O^tBu)-Thr(^tBu)-Leu-OMe,step yield,coupling step,91%
Cbz-N(Me)-Arg(Pbf)-Ser(^tBu)-Asp(O^tBu)-Thr(^tBu)-Leu-OMe (SEQ ID NO:5),step yield,"coupling step, run 1",34.28%
same,step yield,"coupling step, run 2",91%
Cbz-S(tBu)D(OtBu)T(tBu)L-OMe (SEQ ID NO: 77),step yield,"coupling step, run 1",37.33%
same,step yield,"coupling step, run 2",92%
Cbz-S(tBu)D(OtBu)T(tBu)L[Pen](Acm)[Phe(4-tBu)][β3hE](OtBu)[dK](Boc)-NH2,step yield,coupling step,99.7%
same,crude HPLC purity,"coupling step, HPLC (AUC)",89.5%
Fmoc-Pen(Acm)-N(Me)-Arg(pbf)-Ser(^tBu)-Asp(O^tBu)-Thr(^tBu)-Leu-OMe (SEQ ID NO:3),crude purity (method not given),"coupling step, HPLC (AUC)",89.8%
same,step yield,"coupling step, run 1",94.6%
same,step yield,"coupling step, run 2",84%
Fmoc-[Pen](Acm)[Phe(4-tBu)][β3hE](OtBu)[dK](Boc)-NH2 (SEQ ID NO:4),crude HPLC purity,"coupling step, HPLC (AUC), run 1",95.2%
same,crude HPLC purity,"coupling step, HPLC (AUC), run 2",93.9%
same,step yield,"coupling step, run 1",90.6%
same,step yield,"coupling step, run 2",98.32%
H-(N)Me-Arg(Pbf)-Ser(^tBu)-Asp(O^tBu)-Thr(^tBu)-Leu-OMe (SEQ ID NO:5),step yield,[3],94%
same,step yield,[4],95%
H-N-Me-Arg(Pbf)-Ser(^tBu)-Asp(O^tBu)-Thr(^tBu)-Leu-Pen(Acm)-Phe(4-^tBu)-β-homoGlu(O^tBu)-D-Lys(Boc)-NH2,crude HPLC purity,"coupling step, HPLC (AUC)",90%
H-S(tBu)D(OtBu)T(tBu)L-OMe (SEQ ID NO: 77),step yield,[3],87.33%
same,step yield,[4],95%
H-S(tBu)D(OtBu)T(tBu)L[Pen](Acm)[Phe(4-tBu)][β3hE](OtBu)[dK](Boc)-NH2,step yield,late stage modification step,87%
same,crude HPLC purity,[5],82.7%
H-[NMeR](Pbf)S(tBu)D(OtBu)T(tBu)L-OH,step yield,late stage modification step,87.7%
same,crude HPLC purity,[5],96.3%
H-[Pen](Acm)[Phe(4-tBu)][β3hE](OtBu)[dK](Boc)-NH2 (SEQ ID NO:4),final HPLC purity,[5],94.3%
same,crude HPLC purity,[1],93.3%
same,crude HPLC purity,[2],96.2%
same,step yield,[3],55.5%
same,step yield,[4],77.3%
Z-Ser(^tBu)-Asp(O^tBu)-Thr(^tBu)-Leu-OH,step yield,late stage modification step,99.2%
same,crude HPLC purity,[5],91.1%
Z-Ser(^tBu)-Asp(O^tBu)-Thr(^tBu)-Leu-OMe,step yield,coupling step,97.9%
same,crude HPLC purity,"coupling step, HPLC (AUC)",92.6%
same,step yield,purification step,89.3%
same,final HPLC purity,"purification step, HPLC (AUC)",99.1%

# Where no end group is shown, it is not given here. [ ]: non-standard residue; d: D form. The star is where a group is joined. Phe(4-tBu) = CC(C)(C)c1ccc(C[C@H](N)C(=O)O)cc1; Pbf = Cc1c(C)c(S(=O)(=O)*)c(C)c2c1OC(C)(C)C2; Fmoc = O=C(OCC1c2ccccc2-c2ccccc21)*; NMeR = CN[C@@H](CCCNC(=N)N)C(=O)O; β3hE = N[C@@H](CCC(=O)O)CC(=O)O; Pen = CC(C)(S)[C@H](N)C(=O)O; Cbz = O=C(OCc1ccccc1)*; Boc = CC(C)(C)OC(=O)*; OtBu = CC(C)(C)O*; Acm = CC(=O)NC*; tBu = CC(C)(C)*
